Test results taken from the supplement of paper PMC10060354, “Discovery of a small molecule ligand of FRS2 that inhibits invasion and tumor growth” (Cellular Oncology, 2022).
Many values rest on one well or one pass, so single values are uncertain.

Amino acid sequences for entries named in this document (tags omitted). A change or cut given only in a name is not applied to a line headed by its entry.
UniProt Q4G176: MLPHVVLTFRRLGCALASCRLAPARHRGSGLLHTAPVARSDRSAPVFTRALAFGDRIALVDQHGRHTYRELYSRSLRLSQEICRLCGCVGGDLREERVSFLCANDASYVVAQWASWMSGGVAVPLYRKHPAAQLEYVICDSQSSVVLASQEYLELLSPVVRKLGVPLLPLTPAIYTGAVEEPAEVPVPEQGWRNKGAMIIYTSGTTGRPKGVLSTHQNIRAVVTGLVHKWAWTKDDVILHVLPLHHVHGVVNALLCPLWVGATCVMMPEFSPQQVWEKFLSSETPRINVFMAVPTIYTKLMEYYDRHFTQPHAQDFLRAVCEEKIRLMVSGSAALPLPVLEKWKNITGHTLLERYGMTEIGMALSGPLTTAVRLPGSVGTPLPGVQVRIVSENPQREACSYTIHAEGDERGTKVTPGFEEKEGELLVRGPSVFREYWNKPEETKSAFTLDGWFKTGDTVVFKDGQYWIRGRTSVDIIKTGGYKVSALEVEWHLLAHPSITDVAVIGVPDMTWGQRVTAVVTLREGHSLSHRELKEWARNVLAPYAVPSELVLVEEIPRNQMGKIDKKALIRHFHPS
UniProt Q96DH6: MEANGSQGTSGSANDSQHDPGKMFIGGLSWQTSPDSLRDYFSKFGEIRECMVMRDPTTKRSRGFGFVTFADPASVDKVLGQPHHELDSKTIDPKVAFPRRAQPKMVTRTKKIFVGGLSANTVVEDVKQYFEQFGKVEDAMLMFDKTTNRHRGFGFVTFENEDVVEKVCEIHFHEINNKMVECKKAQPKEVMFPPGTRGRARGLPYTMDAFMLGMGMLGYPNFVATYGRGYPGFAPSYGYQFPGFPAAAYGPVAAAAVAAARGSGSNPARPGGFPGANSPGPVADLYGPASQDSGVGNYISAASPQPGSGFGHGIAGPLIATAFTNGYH
UniProt P35914: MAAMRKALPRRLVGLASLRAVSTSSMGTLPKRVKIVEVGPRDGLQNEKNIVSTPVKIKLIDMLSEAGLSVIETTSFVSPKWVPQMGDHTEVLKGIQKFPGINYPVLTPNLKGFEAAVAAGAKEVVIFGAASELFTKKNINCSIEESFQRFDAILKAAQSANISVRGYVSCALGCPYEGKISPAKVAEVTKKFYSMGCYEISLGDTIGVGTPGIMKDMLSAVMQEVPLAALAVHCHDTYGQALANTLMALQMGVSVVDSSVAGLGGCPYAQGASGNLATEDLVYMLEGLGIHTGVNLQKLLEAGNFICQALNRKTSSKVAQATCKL
UniProt Q8WXD5: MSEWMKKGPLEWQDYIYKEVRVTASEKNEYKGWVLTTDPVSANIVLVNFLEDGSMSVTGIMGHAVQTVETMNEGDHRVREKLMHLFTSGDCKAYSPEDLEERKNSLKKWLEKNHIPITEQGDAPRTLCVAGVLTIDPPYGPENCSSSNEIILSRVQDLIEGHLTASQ
UniProt Q9H6H4: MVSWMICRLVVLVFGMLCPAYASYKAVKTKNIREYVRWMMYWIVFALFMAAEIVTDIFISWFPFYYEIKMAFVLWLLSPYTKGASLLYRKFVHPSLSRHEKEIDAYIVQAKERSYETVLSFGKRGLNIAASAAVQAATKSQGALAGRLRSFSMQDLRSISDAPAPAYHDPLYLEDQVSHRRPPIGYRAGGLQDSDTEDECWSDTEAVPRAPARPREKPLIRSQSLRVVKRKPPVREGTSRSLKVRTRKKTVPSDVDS
UniProt Q9H649: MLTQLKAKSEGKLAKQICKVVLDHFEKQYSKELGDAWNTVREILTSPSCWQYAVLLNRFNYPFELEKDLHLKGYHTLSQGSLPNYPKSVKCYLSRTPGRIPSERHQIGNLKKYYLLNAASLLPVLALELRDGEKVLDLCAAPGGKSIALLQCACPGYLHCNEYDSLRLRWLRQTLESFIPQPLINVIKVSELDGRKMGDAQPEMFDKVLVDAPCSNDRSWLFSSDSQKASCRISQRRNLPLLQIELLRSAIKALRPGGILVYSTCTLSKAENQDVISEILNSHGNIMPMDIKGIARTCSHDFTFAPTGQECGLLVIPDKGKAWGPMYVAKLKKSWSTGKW
UniProt Q6UWV6: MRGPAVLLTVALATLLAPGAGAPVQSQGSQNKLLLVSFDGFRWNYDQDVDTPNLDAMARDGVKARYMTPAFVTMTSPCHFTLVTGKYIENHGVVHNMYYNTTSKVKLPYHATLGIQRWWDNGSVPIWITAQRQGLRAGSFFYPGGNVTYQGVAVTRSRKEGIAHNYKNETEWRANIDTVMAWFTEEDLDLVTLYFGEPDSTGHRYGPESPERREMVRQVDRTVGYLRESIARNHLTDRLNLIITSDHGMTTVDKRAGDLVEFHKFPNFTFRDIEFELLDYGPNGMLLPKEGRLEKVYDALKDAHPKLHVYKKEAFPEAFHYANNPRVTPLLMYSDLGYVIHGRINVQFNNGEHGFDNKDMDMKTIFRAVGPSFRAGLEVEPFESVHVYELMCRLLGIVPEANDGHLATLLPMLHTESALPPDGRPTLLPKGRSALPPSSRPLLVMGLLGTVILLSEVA
UniProt Q9NWW5: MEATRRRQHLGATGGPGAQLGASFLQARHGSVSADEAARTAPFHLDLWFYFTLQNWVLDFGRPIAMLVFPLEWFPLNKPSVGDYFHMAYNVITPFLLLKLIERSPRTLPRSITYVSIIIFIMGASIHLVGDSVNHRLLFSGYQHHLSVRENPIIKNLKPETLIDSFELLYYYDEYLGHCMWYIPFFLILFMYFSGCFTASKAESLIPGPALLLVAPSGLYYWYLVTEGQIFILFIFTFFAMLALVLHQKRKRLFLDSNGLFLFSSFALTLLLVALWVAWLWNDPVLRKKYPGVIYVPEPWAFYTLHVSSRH
UniProt Q99816: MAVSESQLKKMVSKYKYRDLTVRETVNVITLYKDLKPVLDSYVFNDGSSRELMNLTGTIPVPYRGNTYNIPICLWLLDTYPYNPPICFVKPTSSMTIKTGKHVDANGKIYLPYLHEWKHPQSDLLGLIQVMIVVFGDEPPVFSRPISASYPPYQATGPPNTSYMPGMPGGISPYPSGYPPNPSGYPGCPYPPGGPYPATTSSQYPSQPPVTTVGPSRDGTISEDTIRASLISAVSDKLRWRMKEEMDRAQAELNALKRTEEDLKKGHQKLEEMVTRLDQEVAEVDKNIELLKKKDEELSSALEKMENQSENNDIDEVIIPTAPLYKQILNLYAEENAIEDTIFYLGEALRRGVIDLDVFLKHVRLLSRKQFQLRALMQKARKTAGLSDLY
UniProt Q13277: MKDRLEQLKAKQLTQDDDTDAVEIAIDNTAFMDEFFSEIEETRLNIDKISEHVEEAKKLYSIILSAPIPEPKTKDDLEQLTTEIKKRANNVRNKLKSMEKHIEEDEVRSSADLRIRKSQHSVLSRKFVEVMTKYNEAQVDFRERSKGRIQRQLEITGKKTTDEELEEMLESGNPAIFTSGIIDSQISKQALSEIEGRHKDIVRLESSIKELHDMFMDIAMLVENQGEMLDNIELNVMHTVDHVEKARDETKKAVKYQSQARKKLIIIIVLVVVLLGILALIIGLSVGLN
UniProt Q15642: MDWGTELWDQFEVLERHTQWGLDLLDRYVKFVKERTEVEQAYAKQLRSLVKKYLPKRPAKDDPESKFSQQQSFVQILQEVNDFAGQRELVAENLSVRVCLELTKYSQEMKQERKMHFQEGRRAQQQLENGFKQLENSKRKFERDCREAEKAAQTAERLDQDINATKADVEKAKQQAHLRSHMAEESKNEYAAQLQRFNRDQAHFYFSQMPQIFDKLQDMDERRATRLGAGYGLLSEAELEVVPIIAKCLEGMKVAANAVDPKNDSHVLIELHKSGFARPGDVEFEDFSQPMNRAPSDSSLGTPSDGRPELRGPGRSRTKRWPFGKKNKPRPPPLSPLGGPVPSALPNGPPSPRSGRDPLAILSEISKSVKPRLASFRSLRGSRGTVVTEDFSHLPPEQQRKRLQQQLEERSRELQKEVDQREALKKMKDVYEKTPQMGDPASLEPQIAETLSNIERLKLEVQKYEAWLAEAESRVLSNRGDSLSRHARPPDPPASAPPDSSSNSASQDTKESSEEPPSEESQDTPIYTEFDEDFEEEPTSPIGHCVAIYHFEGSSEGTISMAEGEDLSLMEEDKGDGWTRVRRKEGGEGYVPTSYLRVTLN
UniProt P07237: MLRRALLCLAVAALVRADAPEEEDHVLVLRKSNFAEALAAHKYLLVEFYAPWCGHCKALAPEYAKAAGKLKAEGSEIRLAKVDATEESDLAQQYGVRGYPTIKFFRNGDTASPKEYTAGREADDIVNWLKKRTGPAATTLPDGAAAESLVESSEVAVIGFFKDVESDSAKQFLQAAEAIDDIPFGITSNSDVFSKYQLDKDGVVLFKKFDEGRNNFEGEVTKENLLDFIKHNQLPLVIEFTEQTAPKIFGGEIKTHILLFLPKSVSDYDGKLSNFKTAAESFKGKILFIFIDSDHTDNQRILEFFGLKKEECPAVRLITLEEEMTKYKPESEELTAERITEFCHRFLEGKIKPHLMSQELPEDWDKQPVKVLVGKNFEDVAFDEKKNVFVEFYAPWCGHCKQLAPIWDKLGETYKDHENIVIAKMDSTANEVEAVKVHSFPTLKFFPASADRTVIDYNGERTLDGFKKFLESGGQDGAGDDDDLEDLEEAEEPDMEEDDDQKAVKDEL
UniProt P56181: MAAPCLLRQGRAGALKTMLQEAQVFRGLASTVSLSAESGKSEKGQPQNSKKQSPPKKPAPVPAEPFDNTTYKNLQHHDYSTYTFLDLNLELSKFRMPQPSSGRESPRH
UniProt Q9Y3I0: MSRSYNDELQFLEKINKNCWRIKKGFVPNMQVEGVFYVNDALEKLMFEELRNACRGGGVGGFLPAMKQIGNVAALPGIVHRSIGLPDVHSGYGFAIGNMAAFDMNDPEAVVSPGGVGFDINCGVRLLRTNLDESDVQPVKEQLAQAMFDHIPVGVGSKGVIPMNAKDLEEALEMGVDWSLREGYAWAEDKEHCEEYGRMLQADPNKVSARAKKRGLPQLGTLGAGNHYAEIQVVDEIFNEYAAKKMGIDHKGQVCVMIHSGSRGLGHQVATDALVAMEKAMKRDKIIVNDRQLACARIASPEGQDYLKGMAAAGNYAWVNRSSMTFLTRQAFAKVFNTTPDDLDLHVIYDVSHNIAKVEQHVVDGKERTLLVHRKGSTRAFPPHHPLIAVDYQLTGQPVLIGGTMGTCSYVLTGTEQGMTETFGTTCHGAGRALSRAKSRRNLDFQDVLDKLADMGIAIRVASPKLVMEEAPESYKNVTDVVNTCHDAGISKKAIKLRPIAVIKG
UniProt P48506: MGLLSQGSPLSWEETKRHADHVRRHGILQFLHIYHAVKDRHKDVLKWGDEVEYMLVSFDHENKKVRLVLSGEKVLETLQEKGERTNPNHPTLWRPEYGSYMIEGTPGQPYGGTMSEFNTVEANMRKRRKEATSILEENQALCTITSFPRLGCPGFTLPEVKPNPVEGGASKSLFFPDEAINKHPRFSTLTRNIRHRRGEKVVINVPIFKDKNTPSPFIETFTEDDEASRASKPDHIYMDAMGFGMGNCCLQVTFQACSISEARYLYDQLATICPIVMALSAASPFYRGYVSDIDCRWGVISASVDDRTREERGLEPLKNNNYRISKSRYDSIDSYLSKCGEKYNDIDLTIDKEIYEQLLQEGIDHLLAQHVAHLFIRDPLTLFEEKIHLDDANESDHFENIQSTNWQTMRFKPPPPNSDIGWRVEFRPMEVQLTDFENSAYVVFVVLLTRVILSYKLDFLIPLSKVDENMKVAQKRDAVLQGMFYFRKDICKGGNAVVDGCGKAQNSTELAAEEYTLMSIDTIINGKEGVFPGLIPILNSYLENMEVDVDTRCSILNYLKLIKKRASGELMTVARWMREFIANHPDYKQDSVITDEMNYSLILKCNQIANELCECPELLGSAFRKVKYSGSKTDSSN
UniProt O95140: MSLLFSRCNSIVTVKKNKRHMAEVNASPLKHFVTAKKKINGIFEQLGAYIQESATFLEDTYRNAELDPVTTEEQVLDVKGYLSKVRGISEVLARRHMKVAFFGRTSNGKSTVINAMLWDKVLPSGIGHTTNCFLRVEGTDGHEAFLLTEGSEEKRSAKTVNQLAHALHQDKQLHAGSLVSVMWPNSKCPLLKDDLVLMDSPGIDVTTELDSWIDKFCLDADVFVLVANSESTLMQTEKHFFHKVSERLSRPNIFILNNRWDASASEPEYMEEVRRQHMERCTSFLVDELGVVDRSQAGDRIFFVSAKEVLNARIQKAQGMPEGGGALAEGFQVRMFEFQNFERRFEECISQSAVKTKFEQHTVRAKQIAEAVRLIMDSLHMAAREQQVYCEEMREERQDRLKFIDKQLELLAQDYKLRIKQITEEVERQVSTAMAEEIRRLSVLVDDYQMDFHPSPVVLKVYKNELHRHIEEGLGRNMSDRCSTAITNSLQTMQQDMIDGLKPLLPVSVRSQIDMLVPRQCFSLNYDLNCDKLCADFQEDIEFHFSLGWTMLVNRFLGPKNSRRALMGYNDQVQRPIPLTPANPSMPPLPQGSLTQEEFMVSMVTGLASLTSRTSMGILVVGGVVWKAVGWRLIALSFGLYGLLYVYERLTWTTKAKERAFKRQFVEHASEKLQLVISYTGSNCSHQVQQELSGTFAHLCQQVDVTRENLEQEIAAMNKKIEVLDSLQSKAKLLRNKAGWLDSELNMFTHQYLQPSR

Compound: [O-][N+](C(C1=C(C(O)=C2)NC(C(C=C3)=CC=C3Cl)C4C1C=CC4)=C2Cl)=O
Assay: melting temperature shift (compound 7 minus DMSO); higher = compound stabilises the protein
Conditions: 10 µM
Protocol: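 Thermal proteome profiling (TMT mass spectrometry) in intact DAOY medulloblastoma cells or DAOY lysates treated with 10 µM compound 7 or DMSO, heated at 10 temperatures from 40.5 to 73.8 °C for 3 min. Melting curves were fitted with the Bioconductor TPP package, and the melting point difference between compound and vehicle is reported per protein (single curve per condition).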

[1] = system: DAOY cell lysate, treatment time: 20 min, 4 °C
[2] = system: intact DAOY cells, treatment time: 90 min, 37 °C

Target	melting temperature shift [1] [°C]	melting temperature shift [2] [°C]
MCUR1 (UniProt Q96AQ8)	0.0847	-0.315
DDA1 (UniProt Q9BW61)	-1.42	-4.19
NOC4L (UniProt Q9BVI4)	0.421	
UBR1 (UniProt Q8IWV7)	-0.523	0.416
FXR2 (UniProt P51116)	0.911	0.57
UniProt P0DN86	5.13	
UniProt P0C2W7		-0.424
ARHGEF10 (UniProt O15013)	-2.53	
ACSF3 (UniProt Q4G176)	-1.94	
UniProt Q5TAQ9	-2.19	-0.111
GSPT1 (UniProt P15170)	-0.292	-0.591
GCN1 (UniProt Q92616)	-1.07	-0.0159
AIFM1 (UniProt O95831)	1.42	-0.983
MSI2 (UniProt Q96DH6)	0.69	-0.0819
ACAD8 (UniProt Q9UKU7)	-1.69	1.64
UniProt Q14195	-0.664	-0.409
HMGCL (UniProt P35914)	-0.122	-0.285
CHM (UniProt P24386)	-1.29	0.715
CRBN (UniProt Q96SW2)	-1.75	1.47
PPP2R5A (UniProt Q15172)	2.41	
MSN (UniProt P26038)	-0.0561	0.223
UBA5 (UniProt Q9GZZ9)	-0.698	-1.24
UniProt O96017	-0.391	

Target	melting temperature shift [1] [°C]	melting temperature shift [2] [°C]
AQR (UniProt O60306)	-0.223	1.34
GEMIN6 (UniProt Q8WXD5)	-0.375	2.11
HDAC7 (UniProt Q8WUI4)	-0.597	-0.44
REEP4 (UniProt Q9H6H4)	0.0685	
VTI1A (UniProt Q96AJ9)	-2.71	
TAPBP (UniProt O15533)	1.52	-0.669
RPL7 (UniProt P18124)	0.169	-0.503
TXLNG (UniProt Q9NUQ3)	-0.256	0.294
UniProt P62308	-0.159	-0.839
THADA (UniProt Q6YHU6)	-1.1	-0.251
UniProt Q9H649	-2.55	
GMPPA (UniProt Q96IJ6)	-0.841	-2.03
SUPT16H (UniProt Q9Y5B9)	-0.0594	-0.215
UniProt Q6UWV6		2.16
GEMIN8 (UniProt Q9NWZ8)	-1.18	4.89
RPS13 (UniProt P62277)	-0.247	-0.584
IPO11 (UniProt Q9UI26)	0.676	0.107
CLN6 (UniProt Q9NWW5)	0.51	
UniProt Q6XE24		-0.0866
TSG101 (UniProt Q99816)	-0.267	0.0652
ARFIP1 (UniProt P53367)	-0.745	3.7
UniProt Q96JB3	1.04	-4.07
TMEM43 (UniProt Q9BTV4)	-0.374	0.0852

Record cards (already shown).
UniProt Q6XE24 in the list: melting temperature shift [2] [°C] = -0.0866
TAPBP (UniProt O15533) in the list: melting temperature shift [1] [°C] = 1.52; melting temperature shift [2] [°C] = -0.669
VTI1A (UniProt Q96AJ9) in the list: melting temperature shift [1] [°C] = -2.71
HDAC7 (UniProt Q8WUI4) in the list: melting temperature shift [1] [°C] = -0.597; melting temperature shift [2] [°C] = -0.44

Later entries.

Target	melting temperature shift [1] [°C]	melting temperature shift [2] [°C]
UniProt Q8NI60	0.382	-1.22
GRWD1 (UniProt Q9BQ67)	-0.134	0.589
PEA15 (UniProt Q15121)	0.229	-0.473
STX3 (UniProt Q13277)	2.18	0.967
TRIT1 (UniProt Q9H3H1)	-0.0524	
SARS2 (UniProt Q9NP81)	-0.333	-0.814
BCAS2 (UniProt O75934)	-0.236	1.6
CDR2 (UniProt Q01850)	-1.72	
A0A0B4J2D5	1.07	-0.21
AHCYL1 (UniProt O43865)	-0.238	0.107
USF1 (UniProt P22415)		-1.51
TRIP10 (UniProt Q15642)	-0.496	-0.481
MON1B (UniProt Q7L1V2)	7.43	0.767
UniProt Q9BTV5	-1.74	0.3
BECN1 (UniProt Q14457)	0.669	-0.632
P4HB (UniProt P07237)	1.46	
NDUFV3 (UniProt P56181)	6.11	
MARC2 (UniProt Q969Z3)	-0.955	-0.402
AKR7A2 (UniProt O43488)	-0.491	-0.0233
NIPBL (UniProt Q6KC79)	1.13	-2.98
RTCB (UniProt Q9Y3I0)	-0.214	0.0216
RPL18A (UniProt Q02543)	0.622	-0.447
ISOC1 (UniProt Q96CN7)	-1.4	2.05

Target	melting temperature shift [1] [°C]	melting temperature shift [2] [°C]
SMYD2 (UniProt Q9NRG4)	-0.354	
ZNF207 (UniProt O43670)	-2.84	-1.9
GCLC (UniProt P48506)	0.208	-0.0455
APIP (UniProt Q96GX9)	-2.45	
TNRC6A (UniProt Q8NDV7)	5.37	-0.113
UniProt O15040	0.00921	1.31
EEF2 (UniProt P13639)	-1.04	-0.0459
VAV2 (UniProt P52735)	0.0206	0.484
UniProt Q96FA7		-0.239
UniProt Q6A1A2		-1.18
PSMB4 (UniProt P28070)	-0.836	-0.279
MFN2 (UniProt O95140)	1.24	-0.0772
MAPRE2 (UniProt Q15555)	-0.876	1.34
LIG4 (UniProt P49917)	1.5	
UniProt Q8N7R7	-3.44	0.647
SMC5 (UniProt Q8IY18)	-0.227	0.686
TTC27 (UniProt Q6P3X3)	-0.947	0.39
ATPAF1 (UniProt Q5TC12)	1.68	0.196
UniProt Q6P474		-0.791
UniProt Q8TDI0	0.64	-0.686
